Data source: PubChem BioAssay AID504793 (Drosophila RNAi Screening Center, 2011)
Screen: 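Whole-genome screen for parts of the DNA damage checkpoint at G2/M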 (primary screen). Cell system: Drosophila S2R+ cells. Knock-down reagent: long dsRNA against Drosophila genes, about 0.25 µg dsRNA per well. Time to read-out: 4 days of dsRNA, then 4 hours of drug before read-out. Challenge: doxorubicin 0.5 µM for 4 hours to cause double-strand breaks, in cells also given a low, harmless dose of dsRNA against nbs to sensitise the assay. Measured: 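Mitotic index as the number of phospho-histone H3-positive cells in each well following doxorubicin, given as raw counts without normalisation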. Reading the numbers: mitotic cells: higher = more cells in mitosis, weaker G2 arrest. Active means: 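Genes are called active only when high mitotic counts were reproduced with independent dsRNAs and mitosis was checked for delay without damage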. Meaning of the calls: active = confirmed in follow-up tests; inactive = not confirmed.
In all, the deposit lists about 23,000 reagents; shown is an unselected part of those with a known target gene and a result. Over the whole deposit, 62 (0.27%) were called active. 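Calls come from follow-up tests whose scores are not deposited, so confirmed genes may have low counts here; counts are not normalised per plate.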 The raw values are shown without normalisation. A plus sign joins genes that one reagent is predicted to hit.

MSBP (GeneID 32548) [SID104199938] | mitotic cells, replicate 1: 7; activity call: inactive
CG7840 (GeneID 34136) [SID104182867] | mitotic cells, replicate 1: 5; activity call: inactive
CG14072 (GeneID 34513) [SID104182167] | mitotic cells, replicate 1: 3; activity call: inactive
CG11037 (GeneID 40317) [SID104191423] | mitotic cells, replicate 1: 2; activity call: inactive
CG15535 (GeneID 43608) [SID104194863] | mitotic cells, replicate 1: 16; activity call: inactive
CG5958 (GeneID 34022) [SID104182707] | mitotic cells, replicate 1: 2; activity call: inactive
Sap-r (GeneID 43662) [SID104196641] | mitotic cells, replicate 1: 10; activity call: inactive
Sap-r (GeneID 43662) [SID104201540] | mitotic cells, replicate 1: 10; activity call: inactive
Sap-r (GeneID 43662) [SID104205790] | mitotic cells, replicate 1: 3; activity call: inactive
Mst98Cb (GeneID 43367) [SID104196542] | mitotic cells, replicate 1: 12; activity call: inactive
Mst98Cb (GeneID 43367) [SID104201948] | mitotic cells, replicate 1: 7; activity call: inactive
Mst98Cb (GeneID 43367) [SID104204251] | mitotic cells, replicate 1: 3; activity call: inactive
Dhod (GeneID 41022) [SID104196439] | mitotic cells, replicate 1: 9; activity call: inactive
CG10492 (GeneID 35177) [SID104203528] | mitotic cells, replicate 1: 6; activity call: inactive
sau (GeneID 33402) [SID104180486] | mitotic cells, replicate 1: 2; activity call: inactive
CG33489 (GeneID 2768971) [SID104190380] | mitotic cells, replicate 1: 3; activity call: inactive
CG33489 (GeneID 2768971) [SID104205197] | mitotic cells, replicate 1: 4; activity call: inactive
CG17739 (GeneID 36333) [SID104186481] | mitotic cells, replicate 1: 7; activity call: inactive
CG17739 (GeneID 36333) [SID104205062] | mitotic cells, replicate 1: 8; activity call: inactive
HmgZ (GeneID 37480) [SID104183680] | mitotic cells, replicate 1: 10; activity call: inactive
HmgZ (GeneID 37480) [SID104184412] | mitotic cells, replicate 1: 7; activity call: inactive
amos (GeneID 35110) [SID104183276] | mitotic cells, replicate 1: 5; activity call: inactive
amos (GeneID 35110) [SID104203396] | mitotic cells, replicate 1: 8; activity call: inactive
CG16964 (GeneID 34605) [SID104182338] | mitotic cells, replicate 1: 6; activity call: inactive
CG16964 (GeneID 34605) [SID104205343] | mitotic cells, replicate 1: 6; activity call: inactive
CG14830 (GeneID 38800) [SID104188668] | mitotic cells, replicate 1: 14; activity call: inactive
CG14830 (GeneID 38800) [SID104189992] | mitotic cells, replicate 1: 4; activity call: inactive
CG14830 (GeneID 38800) [SID104205130] | mitotic cells, replicate 1: 7; activity call: inactive
mthl3 + mthl4 [SID104204534] | mitotic cells, replicate 1: 4; activity call: inactive
Coa7 (GeneID 3355158) [SID104200759] | mitotic cells, replicate 1: 11; activity call: inactive
Coa7 (GeneID 3355158) [SID104205768] | mitotic cells, replicate 1: 5; activity call: inactive
CG7560 (GeneID 39276) [SID104190671] | mitotic cells, replicate 1: 6; activity call: inactive
CG14854 (GeneID 41761) [SID104194770] | mitotic cells, replicate 1: 4; activity call: inactive
Cdk8 (GeneID 39157) [SID104190905] | mitotic cells, replicate 1: 38; activity call: active
Cdk8 (GeneID 39157) [SID104207228] | mitotic cells, replicate 1: 24; activity call: active
